Reference: article doi:10.1101/2022.08.21.504681
These are yes or no findings as the source states them, for the method shown. Some results given as binding are weak or reduced against the parent protein; the word gives no strength.

Biological target: wild type gamma-prefoldin (UniProt Q58064)
Assay: multimodal chromatography

binding: binds
B1: wild type gamma-prefoldin (protein, UniProt Q58064 1-147)
chain: MVNEVIDINEAVRAYIAQIEGLRAEIGRLDATIATLRQSLATLKSLKTLGEGKTVLVPVGSIAQVEMKVEKMDKVVVSVGQNISAELEYEEALKYIEDEIKKLLTFRLVLEQAIAELYAKIEDLIAEAQQTSEEEKAEEEENEEKAE
